In article PMC4493090 one finds binding data, which are given here for one substance.

Sequences of proteins named here, by UniProt entry; tags and fusion partners are left off.
UniProt O14744: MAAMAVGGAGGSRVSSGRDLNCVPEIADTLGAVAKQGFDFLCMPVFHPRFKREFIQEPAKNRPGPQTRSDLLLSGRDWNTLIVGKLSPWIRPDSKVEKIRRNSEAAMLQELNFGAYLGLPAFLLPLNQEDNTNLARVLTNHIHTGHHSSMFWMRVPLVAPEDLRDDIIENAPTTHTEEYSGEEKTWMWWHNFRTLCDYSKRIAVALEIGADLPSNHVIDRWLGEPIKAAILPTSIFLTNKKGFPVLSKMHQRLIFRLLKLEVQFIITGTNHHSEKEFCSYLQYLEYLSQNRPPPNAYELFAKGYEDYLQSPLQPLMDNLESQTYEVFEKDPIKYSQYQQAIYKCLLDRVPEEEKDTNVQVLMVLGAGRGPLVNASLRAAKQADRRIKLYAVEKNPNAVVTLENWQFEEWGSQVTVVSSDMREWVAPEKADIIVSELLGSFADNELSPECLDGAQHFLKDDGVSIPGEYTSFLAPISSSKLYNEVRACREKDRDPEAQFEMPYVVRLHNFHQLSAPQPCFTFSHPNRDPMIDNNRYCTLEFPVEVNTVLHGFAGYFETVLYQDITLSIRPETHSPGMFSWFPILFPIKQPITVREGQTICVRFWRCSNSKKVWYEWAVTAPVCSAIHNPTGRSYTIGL

The target of the assay is FLAG-Glis3-ΔC480-HA (mouse) (UniProt F6SGN4). Briefly: affinity purification with mass spectrometry; tandem FLAG/HA affinity purification of FLAG-Glis3-ΔC480-HA from lysates of stable HEK293-F cells (anti-M2 FLAG agarose, then anti-HA magnetic beads); SDS-PAGE, GeLC-MS; empty vector cells as control.

No constants are given. Whether binding was seen depends on the method and setting. In cells and extracts the contact can be indirect. These calls come from enrichment with a bait or labelling near it, and not all partners need be listed.

Consider “protein arginine methyltransferase 5 (Prmt5) (from UniProt O14744 1-637) (enzyme)”, for which the binding entry is “binds”.
